The results in this text go back to PMC5687663.

Chains of the proteins cited; added tags and fusions are not shown.
UniProt P19139: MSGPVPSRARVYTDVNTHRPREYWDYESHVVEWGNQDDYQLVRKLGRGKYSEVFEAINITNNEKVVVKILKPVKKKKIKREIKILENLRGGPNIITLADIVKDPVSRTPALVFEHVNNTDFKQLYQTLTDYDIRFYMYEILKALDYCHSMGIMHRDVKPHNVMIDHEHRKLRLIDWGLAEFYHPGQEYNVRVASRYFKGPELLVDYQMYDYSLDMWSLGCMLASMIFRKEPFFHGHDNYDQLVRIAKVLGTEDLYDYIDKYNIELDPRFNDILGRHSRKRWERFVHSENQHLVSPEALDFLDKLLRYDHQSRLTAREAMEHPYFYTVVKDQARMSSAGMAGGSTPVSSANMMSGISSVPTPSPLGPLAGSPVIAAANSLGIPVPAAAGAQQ
UniProt Q91V26: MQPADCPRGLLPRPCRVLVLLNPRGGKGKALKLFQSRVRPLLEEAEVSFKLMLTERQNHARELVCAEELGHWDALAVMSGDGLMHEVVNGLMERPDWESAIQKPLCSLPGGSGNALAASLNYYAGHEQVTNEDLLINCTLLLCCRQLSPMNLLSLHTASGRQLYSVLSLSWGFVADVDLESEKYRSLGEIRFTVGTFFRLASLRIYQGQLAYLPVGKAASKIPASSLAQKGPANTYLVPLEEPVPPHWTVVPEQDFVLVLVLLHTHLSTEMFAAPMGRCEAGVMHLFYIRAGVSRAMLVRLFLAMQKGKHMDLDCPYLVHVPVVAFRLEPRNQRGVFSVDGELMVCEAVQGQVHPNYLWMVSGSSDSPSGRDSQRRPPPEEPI

This assay concerns the target Casein kinase 2α subunit (CK2α) (rat (endogenous in primary GMCs of Sprague-Dawley rats)) (UniProt P19139). Put plainly: co-IP; lysate of rat GMCs (500 μg protein) cultured in normal glucose or treated with high glucose for various times; 2 μg antibody against CK2α or SphK1 (or IgG) overnight at 4°C, agarose A/G beads, western blot; both orientations.

No constants are given. Whether binding was seen depends on the method and setting. In cells and extracts the contact can be indirect. Some binding calls cover weakened binding; strength is not graded here.

Consider “Sphingosine kinase 1 (SphK1) (from UniProt Q91V26 1-383) (enzyme)”, for which the binding result is “binds”.
